In data set [1] the target is T1, Carcinoembryonic antigen (CEA) (UniProt P06731).
T1 sequence (looked up, limits assumed): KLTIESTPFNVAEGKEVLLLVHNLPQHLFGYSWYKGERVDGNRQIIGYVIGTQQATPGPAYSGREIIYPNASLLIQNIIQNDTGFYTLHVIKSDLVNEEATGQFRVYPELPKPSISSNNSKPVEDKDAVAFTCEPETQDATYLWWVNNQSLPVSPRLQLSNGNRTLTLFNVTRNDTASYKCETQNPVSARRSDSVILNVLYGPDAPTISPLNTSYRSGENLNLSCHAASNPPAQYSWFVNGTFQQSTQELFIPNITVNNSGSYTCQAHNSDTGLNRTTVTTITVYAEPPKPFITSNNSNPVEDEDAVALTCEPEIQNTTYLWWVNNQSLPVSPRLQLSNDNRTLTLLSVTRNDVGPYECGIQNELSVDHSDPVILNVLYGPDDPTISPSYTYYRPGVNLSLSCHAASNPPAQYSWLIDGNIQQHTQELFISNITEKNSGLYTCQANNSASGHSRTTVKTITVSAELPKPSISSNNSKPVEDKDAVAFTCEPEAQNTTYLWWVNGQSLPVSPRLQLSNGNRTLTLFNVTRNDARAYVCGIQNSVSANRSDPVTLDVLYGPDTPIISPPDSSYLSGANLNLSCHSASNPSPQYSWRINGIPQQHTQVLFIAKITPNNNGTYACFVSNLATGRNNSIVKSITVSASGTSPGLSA
In words: electrochemical aptasensor (DPV). Particulars: toluidine blue, 100-fold excess over 5 ng/mL AFP; 10 mM sodium phosphate buffer pH 7.0, 30 min incubation at room temperature; CV in 10 mM PBS pH 7.4 with 5 mM [Fe(CN)6]3-; commercial protein; single-stranded DNA.

Chains of the proteins cited; added tags and fusions are not shown. Residues count along the entry.
UniProt P17900, 32-193: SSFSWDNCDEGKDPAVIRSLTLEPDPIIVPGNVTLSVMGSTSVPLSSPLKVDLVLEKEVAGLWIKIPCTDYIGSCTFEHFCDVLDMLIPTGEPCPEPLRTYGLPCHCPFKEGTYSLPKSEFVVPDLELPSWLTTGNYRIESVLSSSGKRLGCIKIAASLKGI
UniProt P05231, 30-212: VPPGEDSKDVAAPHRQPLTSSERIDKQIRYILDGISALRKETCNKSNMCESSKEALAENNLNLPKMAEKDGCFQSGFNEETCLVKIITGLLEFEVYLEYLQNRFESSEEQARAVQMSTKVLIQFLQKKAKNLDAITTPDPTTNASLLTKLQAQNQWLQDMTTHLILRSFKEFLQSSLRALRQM
UniProt P02771, 19-609: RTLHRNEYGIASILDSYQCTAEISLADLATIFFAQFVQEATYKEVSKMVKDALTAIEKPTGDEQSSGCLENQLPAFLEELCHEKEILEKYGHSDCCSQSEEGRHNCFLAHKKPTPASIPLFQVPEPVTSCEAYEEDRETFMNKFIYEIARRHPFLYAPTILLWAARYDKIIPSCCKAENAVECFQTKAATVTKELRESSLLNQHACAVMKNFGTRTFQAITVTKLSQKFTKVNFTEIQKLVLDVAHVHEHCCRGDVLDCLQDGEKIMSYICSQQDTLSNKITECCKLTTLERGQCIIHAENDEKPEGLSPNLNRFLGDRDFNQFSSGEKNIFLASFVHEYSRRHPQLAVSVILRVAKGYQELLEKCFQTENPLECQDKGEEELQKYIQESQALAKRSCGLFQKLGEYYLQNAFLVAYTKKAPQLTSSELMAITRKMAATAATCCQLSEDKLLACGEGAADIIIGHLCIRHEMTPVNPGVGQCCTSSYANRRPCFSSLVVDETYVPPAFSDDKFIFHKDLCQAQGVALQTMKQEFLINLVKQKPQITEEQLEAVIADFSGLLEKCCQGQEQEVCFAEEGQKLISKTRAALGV

Data set [2] addresses GM2A protein (GM2AP) (Homo sapiens) (UniProt P17900). In words: electrochemical aptasensor (DPV). Particulars: toluidine blue, 100-fold excess over 5 ng/mL AFP; 10 mM sodium phosphate buffer pH 7.0, 30 min incubation at room temperature; CV in 10 mM PBS pH 7.4 with 5 mM [Fe(CN)6]3-; commercial protein; single-stranded DNA.
The target in data set [3] is HER2/ErbB2 (Homo sapiens) (UniProt P04626). In words: electrochemical aptasensor (DPV). Particulars: toluidine blue, 100-fold excess over 5 ng/mL AFP; 10 mM sodium phosphate buffer pH 7.0, 30 min incubation at room temperature; CV in 10 mM PBS pH 7.4 with 5 mM [Fe(CN)6]3-; commercial protein; single-stranded DNA.
Data set [4] addresses Interleukin 6 (IL-6) (Homo sapiens) (UniProt P05231). In words: electrochemical aptasensor (DPV). The settings on record: toluidine blue, 100-fold excess over 5 ng/mL AFP; 10 mM sodium phosphate buffer pH 7.0, 30 min incubation at room temperature; CV in 10 mM PBS pH 7.4 with 5 mM [Fe(CN)6]3-; commercial protein; single-stranded DNA.
The target in data set [5] is T2, Matrix metalloproteinase-7 (MMP-7) (Homo sapiens) (UniProt P09237).
T2 sequence (looked up, limits assumed): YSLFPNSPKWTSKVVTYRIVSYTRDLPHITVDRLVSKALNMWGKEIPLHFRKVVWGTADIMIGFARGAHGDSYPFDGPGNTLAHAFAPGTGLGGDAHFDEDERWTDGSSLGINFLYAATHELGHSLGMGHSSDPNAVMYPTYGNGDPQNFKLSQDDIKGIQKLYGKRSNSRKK
In words: electrochemical aptasensor (DPV). Particulars: toluidine blue, 100-fold excess over 5 ng/mL AFP; 10 mM sodium phosphate buffer pH 7.0, 30 min incubation at room temperature; CV in 10 mM PBS pH 7.4 with 5 mM [Fe(CN)6]3-; commercial protein; single-stranded DNA.

A further data set has as its target Alpha-fetoprotein (AFP) (UniProt P02771). In words: not stated (cited). Particulars: 10 mM sodium phosphate buffer pH 7.0, 30 min incubation at room temperature; CV in 10 mM PBS pH 7.4 with 5 mM [Fe(CN)6]3-; commercial protein; single-stranded DNA.

By Kd is commonly meant the concentration at which binding is half-saturated.

For part of these data: No signal at the amounts used counts as a negative. For part of these data: At least one verdict rests on a figure or table, not on a statement of the authors. For part of these data: Where a protein sequence is shown, tags need not be part of it. For part of these data: For at least one entry, the source does not settle the construct or the ends of the probe.

For “GTGACGCTCCTAACGCTGACTCAGGTGCAGTTCTCGACTCGGTCTTGATGTGGGTCCTGTCCGTCCGAACCAATC [AFP-specific aptamer (75-mer)]”, the binding result in data set [1], in data set [2], in data set [3], in data set [4] and in data set [5] was “no binding” throughout. Besides, the dissociation constant (Kd) with Alpha-fetoprotein (AFP) came out at 2.37 nM.

The values are drawn from publication PMC10239980.
